According to the supplement of paper PMC10849652:
This is one part of the list.

Chains of the proteins cited; added tags and fusions are not shown. Lines headed by an entry give the natural chain unless they say otherwise; changes in a name come on top.
UniProt Q92922, whole entry, looked up: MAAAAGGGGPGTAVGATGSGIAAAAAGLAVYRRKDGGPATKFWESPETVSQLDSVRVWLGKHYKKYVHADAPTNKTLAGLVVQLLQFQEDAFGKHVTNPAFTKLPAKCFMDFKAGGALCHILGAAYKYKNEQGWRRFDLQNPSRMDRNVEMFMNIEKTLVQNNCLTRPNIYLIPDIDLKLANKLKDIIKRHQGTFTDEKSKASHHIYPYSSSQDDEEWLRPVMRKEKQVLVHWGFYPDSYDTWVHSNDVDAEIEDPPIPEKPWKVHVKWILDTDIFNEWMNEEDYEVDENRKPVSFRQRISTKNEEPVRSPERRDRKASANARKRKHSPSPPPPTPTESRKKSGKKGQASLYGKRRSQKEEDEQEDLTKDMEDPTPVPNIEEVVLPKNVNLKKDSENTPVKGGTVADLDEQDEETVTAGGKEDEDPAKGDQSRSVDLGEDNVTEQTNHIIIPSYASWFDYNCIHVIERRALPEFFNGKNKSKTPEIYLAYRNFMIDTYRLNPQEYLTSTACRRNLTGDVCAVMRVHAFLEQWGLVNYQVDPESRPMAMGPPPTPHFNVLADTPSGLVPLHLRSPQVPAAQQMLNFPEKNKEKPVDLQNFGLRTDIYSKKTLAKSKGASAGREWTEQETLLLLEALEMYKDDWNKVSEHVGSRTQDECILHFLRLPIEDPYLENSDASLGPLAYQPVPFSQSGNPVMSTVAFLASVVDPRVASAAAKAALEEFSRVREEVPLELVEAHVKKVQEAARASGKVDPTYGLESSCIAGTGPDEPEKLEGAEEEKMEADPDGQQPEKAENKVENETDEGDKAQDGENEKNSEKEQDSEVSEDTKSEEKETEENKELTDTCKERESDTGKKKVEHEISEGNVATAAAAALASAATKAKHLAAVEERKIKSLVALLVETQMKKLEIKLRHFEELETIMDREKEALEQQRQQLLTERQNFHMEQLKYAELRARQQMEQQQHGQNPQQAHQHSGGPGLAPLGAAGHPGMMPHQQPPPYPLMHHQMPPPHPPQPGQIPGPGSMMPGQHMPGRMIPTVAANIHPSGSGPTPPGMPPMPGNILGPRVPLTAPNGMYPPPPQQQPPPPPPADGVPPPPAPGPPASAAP
UniProt Q9UMY4: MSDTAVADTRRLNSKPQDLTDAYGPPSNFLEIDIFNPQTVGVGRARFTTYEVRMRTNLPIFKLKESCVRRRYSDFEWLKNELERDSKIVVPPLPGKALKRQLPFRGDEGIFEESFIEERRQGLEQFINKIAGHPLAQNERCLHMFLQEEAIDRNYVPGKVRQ
UniProt P09012, whole entry, looked up: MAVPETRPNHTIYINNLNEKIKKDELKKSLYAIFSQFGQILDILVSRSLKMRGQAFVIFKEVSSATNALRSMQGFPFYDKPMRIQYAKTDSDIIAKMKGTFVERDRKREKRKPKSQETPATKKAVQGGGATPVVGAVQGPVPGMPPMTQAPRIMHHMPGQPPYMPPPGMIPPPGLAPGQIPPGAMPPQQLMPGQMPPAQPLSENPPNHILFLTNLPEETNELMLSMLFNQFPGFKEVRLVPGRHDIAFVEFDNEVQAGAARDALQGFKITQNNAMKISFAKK
UniProt Q02447: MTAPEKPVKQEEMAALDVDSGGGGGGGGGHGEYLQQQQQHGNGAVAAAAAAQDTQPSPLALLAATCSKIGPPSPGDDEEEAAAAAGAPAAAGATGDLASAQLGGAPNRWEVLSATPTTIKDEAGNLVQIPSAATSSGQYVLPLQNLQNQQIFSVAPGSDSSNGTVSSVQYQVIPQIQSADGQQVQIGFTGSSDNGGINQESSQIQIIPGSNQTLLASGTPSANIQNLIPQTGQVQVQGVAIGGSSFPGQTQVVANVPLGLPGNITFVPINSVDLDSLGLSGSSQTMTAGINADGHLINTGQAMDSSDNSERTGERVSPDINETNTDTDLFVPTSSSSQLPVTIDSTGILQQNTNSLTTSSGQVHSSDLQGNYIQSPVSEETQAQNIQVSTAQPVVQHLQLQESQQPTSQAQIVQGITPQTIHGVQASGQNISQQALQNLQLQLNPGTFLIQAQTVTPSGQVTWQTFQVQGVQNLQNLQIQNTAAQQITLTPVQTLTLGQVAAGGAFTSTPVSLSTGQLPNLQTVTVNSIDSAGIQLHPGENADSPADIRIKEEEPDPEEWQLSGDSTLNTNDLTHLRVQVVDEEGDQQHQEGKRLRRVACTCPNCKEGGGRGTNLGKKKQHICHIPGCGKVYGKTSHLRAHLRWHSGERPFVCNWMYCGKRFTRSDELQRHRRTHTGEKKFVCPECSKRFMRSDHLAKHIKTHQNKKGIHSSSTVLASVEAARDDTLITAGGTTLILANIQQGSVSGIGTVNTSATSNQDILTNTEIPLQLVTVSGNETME
UniProt A6NHR9: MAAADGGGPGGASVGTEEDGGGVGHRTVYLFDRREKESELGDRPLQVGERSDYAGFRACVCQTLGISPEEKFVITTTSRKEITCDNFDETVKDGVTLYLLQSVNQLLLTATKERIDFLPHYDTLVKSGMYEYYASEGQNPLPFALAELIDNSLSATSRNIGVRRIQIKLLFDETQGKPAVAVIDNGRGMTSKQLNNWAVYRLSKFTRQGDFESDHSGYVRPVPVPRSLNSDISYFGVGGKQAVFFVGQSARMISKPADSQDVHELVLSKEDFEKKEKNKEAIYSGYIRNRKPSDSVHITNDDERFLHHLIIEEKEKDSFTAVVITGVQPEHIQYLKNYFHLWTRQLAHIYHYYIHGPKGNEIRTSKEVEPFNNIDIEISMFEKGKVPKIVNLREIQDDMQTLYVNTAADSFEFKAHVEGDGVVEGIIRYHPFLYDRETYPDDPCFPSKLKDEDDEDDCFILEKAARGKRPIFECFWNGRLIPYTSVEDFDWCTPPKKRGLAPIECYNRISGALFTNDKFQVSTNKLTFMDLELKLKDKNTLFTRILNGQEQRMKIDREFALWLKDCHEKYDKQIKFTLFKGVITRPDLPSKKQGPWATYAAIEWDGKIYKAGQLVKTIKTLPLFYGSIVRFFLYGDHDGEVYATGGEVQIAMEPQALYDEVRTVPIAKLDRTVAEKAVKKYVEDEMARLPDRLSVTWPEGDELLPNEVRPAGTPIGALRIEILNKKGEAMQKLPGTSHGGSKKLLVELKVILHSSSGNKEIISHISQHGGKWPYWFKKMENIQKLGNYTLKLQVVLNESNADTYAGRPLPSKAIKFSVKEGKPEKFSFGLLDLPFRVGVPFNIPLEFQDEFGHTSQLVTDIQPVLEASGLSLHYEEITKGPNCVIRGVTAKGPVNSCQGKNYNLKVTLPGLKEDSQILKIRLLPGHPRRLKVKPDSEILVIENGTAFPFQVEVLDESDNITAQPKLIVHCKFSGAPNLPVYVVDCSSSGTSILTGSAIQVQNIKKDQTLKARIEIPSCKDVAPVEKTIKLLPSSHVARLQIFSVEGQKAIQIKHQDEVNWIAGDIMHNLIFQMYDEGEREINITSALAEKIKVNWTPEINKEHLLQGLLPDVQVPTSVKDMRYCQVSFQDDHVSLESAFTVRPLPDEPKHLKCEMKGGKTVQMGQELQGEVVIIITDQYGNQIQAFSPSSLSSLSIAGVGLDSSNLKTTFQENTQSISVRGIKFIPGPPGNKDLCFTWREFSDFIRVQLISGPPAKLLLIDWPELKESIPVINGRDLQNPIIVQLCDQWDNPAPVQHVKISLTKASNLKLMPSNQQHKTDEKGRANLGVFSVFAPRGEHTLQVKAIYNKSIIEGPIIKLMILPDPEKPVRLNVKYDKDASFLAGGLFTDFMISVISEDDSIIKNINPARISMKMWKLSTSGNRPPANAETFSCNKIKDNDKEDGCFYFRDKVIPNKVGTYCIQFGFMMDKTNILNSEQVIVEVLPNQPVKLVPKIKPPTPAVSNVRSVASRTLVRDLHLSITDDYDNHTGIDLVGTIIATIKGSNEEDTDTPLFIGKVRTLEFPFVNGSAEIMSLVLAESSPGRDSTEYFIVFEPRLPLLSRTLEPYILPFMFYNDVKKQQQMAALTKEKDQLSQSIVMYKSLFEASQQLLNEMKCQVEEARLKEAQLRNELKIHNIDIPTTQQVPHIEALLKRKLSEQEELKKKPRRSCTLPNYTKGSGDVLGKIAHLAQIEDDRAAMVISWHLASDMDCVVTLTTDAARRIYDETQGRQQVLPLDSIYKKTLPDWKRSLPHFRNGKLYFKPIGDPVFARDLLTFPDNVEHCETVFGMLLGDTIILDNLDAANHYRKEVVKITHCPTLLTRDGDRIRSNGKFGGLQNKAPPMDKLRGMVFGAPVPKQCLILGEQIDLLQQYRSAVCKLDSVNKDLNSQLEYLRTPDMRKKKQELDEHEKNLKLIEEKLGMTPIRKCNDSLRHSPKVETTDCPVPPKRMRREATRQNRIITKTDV
UniProt O75391: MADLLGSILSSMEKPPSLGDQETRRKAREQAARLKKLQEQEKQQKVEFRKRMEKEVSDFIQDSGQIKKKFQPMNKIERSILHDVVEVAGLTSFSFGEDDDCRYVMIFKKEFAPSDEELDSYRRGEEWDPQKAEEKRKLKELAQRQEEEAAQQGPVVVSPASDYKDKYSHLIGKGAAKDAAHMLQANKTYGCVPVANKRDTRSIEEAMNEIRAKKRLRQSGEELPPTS
UniProt Q9H7B4: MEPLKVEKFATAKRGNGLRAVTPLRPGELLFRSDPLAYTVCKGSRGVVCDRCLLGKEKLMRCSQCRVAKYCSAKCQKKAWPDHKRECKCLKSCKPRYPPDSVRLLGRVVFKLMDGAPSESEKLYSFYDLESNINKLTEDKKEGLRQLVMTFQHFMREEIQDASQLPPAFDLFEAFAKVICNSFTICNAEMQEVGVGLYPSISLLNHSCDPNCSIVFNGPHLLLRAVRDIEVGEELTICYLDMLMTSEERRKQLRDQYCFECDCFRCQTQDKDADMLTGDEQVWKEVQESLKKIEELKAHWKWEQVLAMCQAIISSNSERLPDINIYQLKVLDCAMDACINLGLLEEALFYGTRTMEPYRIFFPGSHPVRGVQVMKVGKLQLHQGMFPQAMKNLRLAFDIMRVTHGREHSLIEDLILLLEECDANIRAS
UniProt P08621, whole entry, looked up: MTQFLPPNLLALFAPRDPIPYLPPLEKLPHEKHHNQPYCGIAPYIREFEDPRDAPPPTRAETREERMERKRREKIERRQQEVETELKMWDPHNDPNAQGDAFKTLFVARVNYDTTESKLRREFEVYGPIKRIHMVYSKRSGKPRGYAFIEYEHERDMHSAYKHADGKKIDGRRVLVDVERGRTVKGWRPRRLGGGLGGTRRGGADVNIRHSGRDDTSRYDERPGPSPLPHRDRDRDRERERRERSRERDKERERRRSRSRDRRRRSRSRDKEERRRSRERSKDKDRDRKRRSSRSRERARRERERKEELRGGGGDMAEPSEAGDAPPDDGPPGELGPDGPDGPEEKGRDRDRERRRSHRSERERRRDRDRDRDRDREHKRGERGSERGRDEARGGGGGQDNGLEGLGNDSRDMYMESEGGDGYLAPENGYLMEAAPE
UniProt Q969G3, whole entry, looked up: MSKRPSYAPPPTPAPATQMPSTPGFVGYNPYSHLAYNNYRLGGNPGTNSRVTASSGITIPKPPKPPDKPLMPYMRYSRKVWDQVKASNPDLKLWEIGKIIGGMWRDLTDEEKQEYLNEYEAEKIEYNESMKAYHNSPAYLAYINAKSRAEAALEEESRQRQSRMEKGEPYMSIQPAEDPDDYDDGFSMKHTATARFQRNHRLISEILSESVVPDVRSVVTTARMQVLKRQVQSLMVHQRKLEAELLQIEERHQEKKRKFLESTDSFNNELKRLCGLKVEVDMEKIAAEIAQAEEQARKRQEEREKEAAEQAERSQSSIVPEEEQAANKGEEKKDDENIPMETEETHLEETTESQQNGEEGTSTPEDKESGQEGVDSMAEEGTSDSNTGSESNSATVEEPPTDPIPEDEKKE
UniProt Q96H20: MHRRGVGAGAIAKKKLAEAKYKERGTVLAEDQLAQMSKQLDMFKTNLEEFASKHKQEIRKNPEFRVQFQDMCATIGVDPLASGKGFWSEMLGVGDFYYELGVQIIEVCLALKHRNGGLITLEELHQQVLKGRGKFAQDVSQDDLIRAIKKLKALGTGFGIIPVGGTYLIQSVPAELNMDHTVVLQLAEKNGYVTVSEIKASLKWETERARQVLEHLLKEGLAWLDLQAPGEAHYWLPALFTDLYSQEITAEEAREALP
UniProt Q5VWJ9: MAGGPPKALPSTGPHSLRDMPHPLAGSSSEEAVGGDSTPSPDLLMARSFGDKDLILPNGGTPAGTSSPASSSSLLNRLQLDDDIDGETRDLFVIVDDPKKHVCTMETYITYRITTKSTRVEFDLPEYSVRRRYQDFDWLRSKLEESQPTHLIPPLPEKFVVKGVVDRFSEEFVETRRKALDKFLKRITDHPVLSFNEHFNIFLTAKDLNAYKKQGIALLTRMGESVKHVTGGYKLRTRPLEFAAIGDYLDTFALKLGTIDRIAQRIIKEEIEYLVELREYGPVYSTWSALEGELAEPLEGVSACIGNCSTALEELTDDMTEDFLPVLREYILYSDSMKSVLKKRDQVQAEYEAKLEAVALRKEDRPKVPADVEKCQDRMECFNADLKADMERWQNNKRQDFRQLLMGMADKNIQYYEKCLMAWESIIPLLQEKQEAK

Experiments:
Test in all cases: log2 fold change, soluble protein after heating vs DMSO (PISA); higher = thermal stabilisation; K562 lysate, 10 uM; active = over 0.2 and 3.5 SD of the protein, either way, in both replicates (recomputed)
ibrutinib = compound: C=CC(=O)N1CCC[C@@H](n2nc(-c3ccc(Oc4ccccc4)cc3)c3c(N)ncnc32)C1 [ibrutinib]
Summary of the method: (§1)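 The values are log-two fold changes in thermal stability compared with solvent controls and come from duplicates. They were obtained by TMTpro 16plex LC-MS/MS, with channel sums equalised, on the supernatant after 21,000xg for 90 min. That supernatant came from crude K562 extract at 1 mg/mL protein treated with 10 μM compound for 30 min, heated for 3 min across 48°C-58°C, pooled and brought to 0.5% NP-40 at 4°C.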

[1] = compound: CC(=O)c1cnc2ccc(-c3cc(Cl)c(O)c(Cl)c3)nc2c1N[C@H]1CC[C@H](CN(C)C)CC1
Summary of the method: as §1

ralimetinib = compound: CC(C)(C)Cn1c(N)nc2ccc(-c3[nH]c(C(C)(C)C)nc3-c3ccc(F)cc3)nc21 [ralimetinib]
Summary of the method: as §1

[2] = compound: CC(C)(O)CC(=O)NCCn1ccc2ncnc(Nc3ccc(Oc4cccc(C(F)(F)F)c4)c(Cl)c3)c21
Summary of the method: as §1

[3] = compound: CC(C)C1=C2N=C(C=C(N2N=C1)NCC3=CC=CC=C3)NCCCCCCN
Summary of the method: as §1

[4] = compound: CC1=C(C(CC(=O)N1)C2=CC=C(C=C2)C(F)(F)F)C(=O)NC3=C(C=C4C(=C3)C=NN4)F
Summary of the method: as §1

[5] = compound: CC1=C(C2=C(C=C1)C(=O)C3=CC=CC=C3N2CCCN)C
Summary of the method: as §1

[6] = compound: CC1=C(C=C(C=C1)NC(=O)C2=CC(=CC=C2)C(C)(C)C#N)NC3=CC4=C(C=C3)N=CN(C4=O)C
Summary of the method: as §1

[7] = compound: CC1=C(C=C(C=C1)NC(=O)C2=CC(=CC=C2)N(C)C)NC(=O)C3=CC=C(C=C3)O
Summary of the method: as §1

[8] = compound: CC1=CC=C(C=C1)SC2=C3C=C(SC3=CN=C2)C(=O)N
Summary of the method: as §1

vemurafenib = compound: CCCS(=O)(=O)Nc1ccc(F)c(C(=O)c2c[nH]c3ncc(-c4ccc(Cl)cc4)cc23)c1F [vemurafenib]
Summary of the method: as §1

[9] = compound: CCCS(=O)(=O)Nc1ccc(F)c(C(=O)c2c[nH]c3ncc(Cl)cc23)c1F
Summary of the method: as §1

barasertib = compound: CCN(CCCOc1ccc2c(Nc3cc(CC(=O)Nc4cccc(F)c4)[nH]n3)ncnc2c1)CCOP(=O)(O)O [barasertib]
Summary of the method: as §1

[10] = compound: CC[C@@H]1C(=O)N(C)c2cnc(Nc3ccc(C(=O)NC4CCN(C)CC4)cc3OC)nc2N1C1CCCC1
Summary of the method: as §1

volasertib = compound: CC[C@@H]1C(=O)N(C)c2cnc(Nc3ccc(C(=O)N[C@H]4CC[C@H](N5CCN(CC6CC6)CC5)CC4)cc3OC)nc2N1C(C)C [volasertib]
Summary of the method: as §1

[11] = compound: CCn1c(C(=O)N(C2CC2)C2CC2)cc2c3c(ncn3C)c(Nc3cc(C)n(C)n3)nc21
Summary of the method: as §1

[12] = compound: CCn1cc(-c2ccnc3[nH]c(-c4cccc(CN(C)C)c4)cc23)c(-c2ccc(NC(=O)N(C)C)cc2)n1
Summary of the method: as §1

[13] = compound: CN1CCC(CNc2ccc3ncc(-c4cccc(OC(F)(F)F)c4)n3n2)CC1
Summary of the method: as §1

saracatinib = compound: CN1CCN(CCOc2cc(OC3CCOCC3)c3c(Nc4c(Cl)ccc5c4OCO5)ncnc3c2)CC1 [saracatinib]
Summary of the method: as §1

sotrastaurin = compound: CN1CCN(c2nc(C3=C(c4c[nH]c5ccccc45)C(=O)NC3=O)c3ccccc3n2)CC1 [sotrastaurin]
Summary of the method: as §1

Measured: log2 fold change

SMARCC1 (UniProt Q92922)
inactive: ibrutinib 0.001 | [1] -0.011 | ralimetinib 0.007 | [2] -0.02 | [3] 0.022 | [4] 0.013 | [5] -0.046 | [6] -0.017 | [7] 0.007 | [8] -0.009 | vemurafenib 0.026 | [9] 0.011 | barasertib 0.002 | [10] -0.008 | volasertib -0.036 | [11] -0.005 | [12] -0.077 | [13] 0.028 | saracatinib 0.007 | sotrastaurin -0.013

SNX12 isoform 1 (UniProt Q9UMY4)
inactive: ibrutinib -0.031 | [1] -0.016 | ralimetinib -0.022 | [2] -0.038 | [3] -0.033 | [4] -0.066 | [5] -0.018 | [6] -0.02 | [7] -0.007 | [8] -0.014 | vemurafenib 0.004 | [9] -0.003 | barasertib 0.009 | [10] 0.016 | volasertib 0.008 | [11] 0.007 | [12] 0.036 | [13] -0.014 | saracatinib -0.007 | sotrastaurin -0.009

SNRPA (UniProt P09012)
inactive: ibrutinib 0.017 | [1] -0.02 | ralimetinib -0.019 | [2] -0.012 | [3] -0.001 | [4] -0.018 | [5] -0.035 | [6] 0.002 | [7] -0.004 | [8] -0.017 | vemurafenib 0.01 | [9] -0.019 | barasertib -0.015 | [10] 0.044 | volasertib 0.029 | [11] -0.005 | [12] -0.06 | [13] 0.027 | saracatinib 0.017 | sotrastaurin -0.002

SP3 (UniProt Q02447)
inactive: ibrutinib 0.082 | [1] -0.009 | ralimetinib -0.01 | [2] -0.085 | [3] -0.095 | [4] -0.156 | [5] 0.004 | [6] 0.052 | [7] 0.009 | [8] -0.069 | [9] 0.012 | barasertib 0.065 | [10] 0.054 | volasertib 0.027 | [11] -0.009 | [12] 0.052 | [13] -0.068 | saracatinib 0.047 | sotrastaurin -0.136

SNRPB isoform 3 (UniProt P14678)
inactive: ibrutinib -0.038 | [1] 0.032 | ralimetinib 0.015 | [2] 0.004 | [3] -0.012 | [4] 0.03 | [5] -0.007 | [6] -0.056 | [7] -0.058 | [8] 0.029 | vemurafenib -0.028 | [9] 0.002 | barasertib 0.005 | [10] -0.007 | volasertib 0.024 | [11] 0.051 | [12] -0.07 | [13] 0.188 | saracatinib -0.021 | sotrastaurin 0.002

SMCHD1 (UniProt A6NHR9)
inactive: ibrutinib -0.02 | [1] 0.002 | ralimetinib 0.051 | [2] 0.005 | [3] 0.029 | [4] 0.024 | [5] -0.042 | [6] 0.031 | [7] 0.037 | [8] 0.01 | vemurafenib 0.036 | [9] 0.012 | barasertib -0.01 | [10] -0.052 | volasertib -0.018 | [11] 0.037 | [12] -0.15 | [13] 0.031 | saracatinib 0.006 | sotrastaurin 0.055

SPAG7 (UniProt O75391)
inactive: ibrutinib -0.001 | [1] -0.028 | ralimetinib 0 | [2] -0.039 | [3] -0.015 | [4] -0.013 | [5] -0.011 | [6] 0.011 | [7] -0.006 | [8] -0.001 | vemurafenib -0.001 | [9] 0.014 | barasertib -0.014 | [10] 0.12 | volasertib 0.032 | [11] -0.022 | [12] 0.047 | [13] 0.022 | saracatinib 0.034 | sotrastaurin -0.019

SMYD3 (UniProt Q9H7B4)
inactive: ibrutinib -0.009 | [1] -0.002 | ralimetinib 0.032 | [2] -0.012 | [3] 0.034 | [4] -0.037 | [5] -0.028 | [6] 0.038 | [7] 0.036 | [8] -0.027 | vemurafenib 0.036 | [9] 0.013 | barasertib 0.017 | [10] -0.137 | volasertib -0.051 | [11] -0.02 | saracatinib 0.045 | sotrastaurin -0.005

SNRNP70 (UniProt P08621)
inactive: ibrutinib -0.034 | [1] -0.031 | ralimetinib -0.015 | [2] -0.023 | [3] 0.034 | [4] -0.032 | [5] -0.037 | [6] -0.005 | [7] -0.006 | [8] 0 | vemurafenib -0.021 | [9] 0.022 | barasertib -0.017 | [10] 0.001 | volasertib 0.028 | [11] -0.025 | [12] 0.051 | [13] 0.007 | saracatinib 0.001 | sotrastaurin -0.007

SNRNP48 (UniProt Q6IEG0)
inactive: ibrutinib 0.004 | [1] 0.095 | ralimetinib 0.083 | [2] -0.031 | [3] 0.034 | [4] -0.012 | [5] -0.132 | [6] -0.045 | [7] 0.01 | [8] -0.025 | vemurafenib 0.254 | [9] 0.058 | barasertib 0.014 | [10] -0.092 | volasertib -0.036 | [11] 0.052 | [12] -0.294 | [13] -0.025 | saracatinib 0.019 | sotrastaurin 0.016

Reprinted from the results shown (2 entries):
SNRPA (UniProt P09012)
inactive: ibrutinib 0.017 | [1] -0.02 | ralimetinib -0.019 | [2] -0.012 | [3] -0.001 | [4] -0.018 | [5] -0.035 | [6] 0.002 | [7] -0.004 | [8] -0.017 | vemurafenib 0.01 | [9] -0.019 | barasertib -0.015 | [10] 0.044 | volasertib 0.029 | [11] -0.005 | [12] -0.06 | [13] 0.027 | saracatinib 0.017 | sotrastaurin -0.002

SP3 (UniProt Q02447)
inactive: ibrutinib 0.082 | [1] -0.009 | ralimetinib -0.01 | [2] -0.085 | [3] -0.095 | [4] -0.156 | [5] 0.004 | [6] 0.052 | [7] 0.009 | [8] -0.069 | [9] 0.012 | barasertib 0.065 | [10] 0.054 | volasertib 0.027 | [11] -0.009 | [12] 0.052 | [13] -0.068 | saracatinib 0.047 | sotrastaurin -0.136

Later entries

SMARCE1 (UniProt Q969G3)
inactive: ibrutinib -0.016 | [1] -0.038 | ralimetinib 0.018 | [2] -0.009 | [3] 0.029 | [4] -0.021 | [5] 0.007 | [6] -0.072 | [7] 0.003 | [8] -0.004 | vemurafenib 0.004 | [9] 0.02 | barasertib -0.018 | [10] -0.004 | volasertib -0.02 | [11] 0.006 | [12] 0.082 | [13] -0.055 | saracatinib 0.032 | sotrastaurin 0.015

SMARCC2 (UniProt Q8TAQ2)
inactive: ibrutinib 0.003 | [1] -0.006 | ralimetinib -0.011 | [2] 0.011 | [3] 0.008 | [4] -0.012 | [5] -0.022 | [6] -0.007 | [7] 0.014 | [8] 0.004 | vemurafenib -0.001 | [9] 0.007 | barasertib 0.017 | [10] -0.009 | volasertib -0.023 | [11] -0.003 | [12] -0.012 | [13] -0.014 | saracatinib 0.029 | sotrastaurin 0.015

SNRNP27 (UniProt Q8WVK2)
inactive: ibrutinib 0.001 | [1] 0.008 | ralimetinib 0.03 | [2] -0.054 | [3] 0.041 | [4] 0.006 | [5] -0.024 | [6] 0.039 | [7] -0.018 | [8] 0.042 | vemurafenib -0.008 | [9] 0.025 | barasertib -0.058 | [10] 0.035 | volasertib 0.017 | [11] -0.026 | [12] 0.031 | [13] 0.01 | saracatinib -0.012 | sotrastaurin 0.099

SNF8 (UniProt Q96H20)
inactive: ibrutinib 0.023 | [1] -0.001 | ralimetinib 0 | [2] 0.016 | [3] 0.038 | [4] -0.004 | [5] 0.011 | [6] -0.016 | [7] 0 | [8] 0.006 | vemurafenib -0.015 | [9] -0.006 | barasertib 0.017 | [10] -0.018 | volasertib -0.006 | [11] -0.026 | [12] 0.022 | [13] -0.04 | saracatinib 0.015 | sotrastaurin 0.032

SND1 (UniProt Q7KZF4)
inactive: ibrutinib 0.012 | [1] 0.004 | ralimetinib 0.03 | [2] 0.044 | [3] 0.027 | [4] 0.024 | [5] 0.015 | [6] 0.003 | [7] 0.038 | [8] 0.024 | vemurafenib 0.024 | [9] 0.017 | barasertib 0.021 | [10] -0.099 | volasertib -0.084 | [11] 0.037 | [12] 0.058 | [13] -0.078 | saracatinib 0.014 | sotrastaurin 0.031

SNX30 (UniProt Q5VWJ9)
inactive: ibrutinib -0.064 | [1] 0.054 | ralimetinib 0.125 | [2] -0.046 | [3] -0.056 | [4] 0.019 | [5] 0.025 | [6] -0.073 | [7] 0.036 | [8] -0.043 | [9] -0.091 | barasertib 0.032 | volasertib 0.122 | [11] -0.002 | [12] 0.074 | [13] 0.06 | saracatinib 0.004 | sotrastaurin 0.113
